# Reference: patent US20060204957A1, “Mta1s, a steriod hormone receptor corepressor” (priority 2002, published 2006)
# No constants are given. Whether binding was seen depends on the method and setting. Some results given as binding are weak or reduced against the parent protein; the word gives no strength.
# B1: carboxy terminus of MTA1s (yeast two-hybrid bait) (peptide)
# chain: MSSLRILLDILEEIWWLENANPVRWREARTKPQ
# Key:
# [1] = biological target: T1, bifunctional ATP sulfurylase/adenosine 5'-phosphosulfate (APS) kinase (UniProt O43252); experiment: yeast two-hybrid screen, carboxy terminus of MTA1s as bait
# T1 sequence (looked up): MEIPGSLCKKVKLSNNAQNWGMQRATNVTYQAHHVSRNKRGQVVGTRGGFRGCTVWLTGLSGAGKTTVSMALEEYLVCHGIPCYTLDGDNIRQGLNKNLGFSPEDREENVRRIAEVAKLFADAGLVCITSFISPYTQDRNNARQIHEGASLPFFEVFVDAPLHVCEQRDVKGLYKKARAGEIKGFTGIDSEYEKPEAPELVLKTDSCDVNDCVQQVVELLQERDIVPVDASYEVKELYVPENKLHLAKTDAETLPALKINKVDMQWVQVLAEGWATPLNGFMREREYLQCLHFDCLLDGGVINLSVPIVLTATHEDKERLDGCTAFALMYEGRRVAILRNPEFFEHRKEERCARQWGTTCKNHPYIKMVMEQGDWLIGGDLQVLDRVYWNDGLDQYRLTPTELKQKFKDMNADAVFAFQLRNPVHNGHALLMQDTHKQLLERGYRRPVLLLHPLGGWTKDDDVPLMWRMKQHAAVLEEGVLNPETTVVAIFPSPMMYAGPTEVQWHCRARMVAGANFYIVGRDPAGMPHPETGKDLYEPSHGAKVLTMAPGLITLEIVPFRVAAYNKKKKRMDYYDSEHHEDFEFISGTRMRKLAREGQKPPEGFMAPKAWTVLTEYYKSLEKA
# LMO4 = biological target: T2, LMO4 (UniProt P61968); experiment: as above
# T2 sequence (looked up): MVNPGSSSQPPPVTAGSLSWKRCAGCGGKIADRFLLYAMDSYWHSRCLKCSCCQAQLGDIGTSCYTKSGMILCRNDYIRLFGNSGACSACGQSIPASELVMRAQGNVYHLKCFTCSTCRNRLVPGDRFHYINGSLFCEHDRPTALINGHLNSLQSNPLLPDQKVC
binder,measurement,setting,value
B1,binding,[1],binds
same,binding,LMO4,binds
